From article PMC7493855
No constants are given. Whether binding was seen depends on the method and setting. Binding seen in cells or lysates may run through a third protein. Here binding means that the protein was enriched with, or labelled near, the bait; the list need not be complete.

Chains of the proteins cited; added tags and fusions are not shown.
UniProt Q3URK3: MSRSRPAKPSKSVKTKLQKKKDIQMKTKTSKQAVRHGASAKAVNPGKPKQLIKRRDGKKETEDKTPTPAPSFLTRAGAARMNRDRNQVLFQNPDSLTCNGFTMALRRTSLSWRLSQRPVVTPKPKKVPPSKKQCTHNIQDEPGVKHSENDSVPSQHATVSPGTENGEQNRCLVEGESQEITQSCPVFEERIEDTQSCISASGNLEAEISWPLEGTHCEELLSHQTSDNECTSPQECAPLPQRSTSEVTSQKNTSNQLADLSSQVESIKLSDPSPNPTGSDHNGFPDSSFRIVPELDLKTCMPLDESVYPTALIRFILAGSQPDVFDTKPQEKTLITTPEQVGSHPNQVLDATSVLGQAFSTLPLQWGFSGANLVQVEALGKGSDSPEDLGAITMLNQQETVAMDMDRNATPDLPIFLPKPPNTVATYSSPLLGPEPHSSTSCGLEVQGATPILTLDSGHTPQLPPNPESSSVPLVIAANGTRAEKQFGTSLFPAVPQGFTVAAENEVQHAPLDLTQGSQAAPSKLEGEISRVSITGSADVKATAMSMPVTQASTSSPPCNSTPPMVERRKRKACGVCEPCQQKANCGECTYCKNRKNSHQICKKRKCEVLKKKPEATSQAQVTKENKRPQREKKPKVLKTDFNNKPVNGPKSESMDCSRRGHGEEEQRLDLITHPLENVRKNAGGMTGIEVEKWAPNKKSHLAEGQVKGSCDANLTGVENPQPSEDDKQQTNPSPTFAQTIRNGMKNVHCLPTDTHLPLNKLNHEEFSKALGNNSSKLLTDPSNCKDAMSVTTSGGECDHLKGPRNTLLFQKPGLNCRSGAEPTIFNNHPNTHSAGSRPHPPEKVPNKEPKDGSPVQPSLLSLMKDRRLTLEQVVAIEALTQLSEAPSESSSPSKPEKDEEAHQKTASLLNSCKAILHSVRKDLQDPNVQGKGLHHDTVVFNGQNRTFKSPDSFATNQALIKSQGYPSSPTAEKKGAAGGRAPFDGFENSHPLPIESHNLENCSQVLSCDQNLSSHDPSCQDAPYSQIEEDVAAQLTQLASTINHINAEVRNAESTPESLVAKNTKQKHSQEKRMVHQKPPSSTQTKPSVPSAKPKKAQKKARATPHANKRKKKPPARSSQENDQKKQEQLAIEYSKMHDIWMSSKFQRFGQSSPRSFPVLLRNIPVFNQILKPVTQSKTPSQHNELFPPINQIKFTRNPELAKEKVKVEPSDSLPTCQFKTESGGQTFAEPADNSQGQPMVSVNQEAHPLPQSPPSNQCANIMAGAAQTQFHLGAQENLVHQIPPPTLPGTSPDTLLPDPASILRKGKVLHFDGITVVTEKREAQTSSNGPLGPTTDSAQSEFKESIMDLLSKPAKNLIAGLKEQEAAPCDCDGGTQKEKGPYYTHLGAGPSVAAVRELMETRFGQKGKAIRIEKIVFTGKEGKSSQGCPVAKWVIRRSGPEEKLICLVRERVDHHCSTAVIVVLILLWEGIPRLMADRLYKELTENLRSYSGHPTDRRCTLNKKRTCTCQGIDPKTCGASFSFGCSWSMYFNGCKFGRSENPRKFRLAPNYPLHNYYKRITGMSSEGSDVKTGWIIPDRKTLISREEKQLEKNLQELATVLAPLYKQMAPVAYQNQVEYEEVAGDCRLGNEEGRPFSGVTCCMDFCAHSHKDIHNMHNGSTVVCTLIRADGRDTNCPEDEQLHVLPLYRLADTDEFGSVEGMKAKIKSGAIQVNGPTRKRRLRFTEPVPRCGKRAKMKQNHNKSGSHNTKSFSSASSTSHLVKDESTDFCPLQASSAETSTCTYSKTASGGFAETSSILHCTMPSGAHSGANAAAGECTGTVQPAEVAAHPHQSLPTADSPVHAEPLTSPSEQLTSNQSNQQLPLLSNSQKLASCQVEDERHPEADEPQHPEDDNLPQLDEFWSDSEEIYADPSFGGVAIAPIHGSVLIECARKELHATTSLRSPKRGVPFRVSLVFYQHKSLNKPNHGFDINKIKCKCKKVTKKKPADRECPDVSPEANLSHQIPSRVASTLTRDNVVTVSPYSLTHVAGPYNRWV

B1: Wdr18 (protein, UniProt Q4VBE8 1-431)
chain: MAAPMEVVVCTDAAAQLWSCVVWELHSGANLLTYRGGQAGPRGLALLNGEYLLAAQQGKNYICAWELQRKDQLQQKIMCPGPVTCLTTAPNGLYVLAGIAESIYLWEVCTGNLLVILSRHYQDVSCLKFTGDGSHFVSAGKDCLALAWSLCSVLQADPSRILAPRHVWSQHTLPITDLHCGFGGPMARVATASLDQTVKLWAISSGDLLLSVLFDMGITSVTMDLAEHHIFCGGSDGSIFQVDLCSWPGLREHSFQPEQNTGKVFKGHRNQVTCLSVSTDGSVLLSGSHDESVRLWDVKSKQCLRTVTLKGPVTNAAIILAPPSMLNPEFRPSLPLPHFNKHLLGAEHGDEAQGGGLRLQLGLHLQGKEPSYLERLEQLQAVLSSYLEKNMLGSQMLPARVFDLEDEVRSLRKINRDLFDFSTRIITRPSK
B2: Slf2 (protein, UniProt Q6P9P0 1-1278)
chain: MTRRCMPARPGFPSSPAPGSSPPRCHLRPGSTAPAAAGKRTESPGDRKQSIIDFFKPAAKQDKHMLDSPQKSNIKYRGNGLSITGTEQFERKLSSPKKLKPKRMSSEESPILEAFMKGGKEHHKDRGVHESRRPCMSLSKYLPKGAGIYAPSSYRLPKEIKAQKKKHQSPERRKSLFIHESNREKNDRDRGKNSEDSRKQATATEGDIFKHSSRSISSRSSLSRHHPGESTLGARFQLSLASYWREREQKKLRKEQMEQRINSENSFSEASNLSLKSSGVGKNCKPRHEHSKHTEAVPGKSNLSTLENGHLSRKRSSSDSWELSGSKQNKFSDKRTEELCGLRPEKHKRTYHTKSKRVLSREAPRHIPSERKVYQTHCTEDSWWCSALGRHSQGAGKTVSRGMSIASTLRLYLGRVISQLWKMDISQEKDHLQTRGNFQALNRINSPTKEQRNSVDSDLKSTKEPIIPKARESFLEKRPDTSHQREKFIRHIALKTPGGVLRLEDIAKEPEDETDRSSADSAPSNAGHHSSRNSDQVHSASTKETKIQKPHLPLPQEKSTIKRASNLQKNKPAGSVTSKETKLPLLSHVPSAVSSRVPLNAKNCTLPVPKKDKERSSSKERSGHSTESSKHKEHRAKTIKAVSNESSGKNSGGSLHSEYAPPTASPPAALEVVPSVPSPAAPSDKESSGNSNAGSNALKRKFRGDFDSDEESLGYTLESDEEEETLKSLEEIMALNFSRTPTTSGKPPAVSKGLRSQSSDMKEYAQSGTYTNTLERLVKEMEDTQRLDELQKKLQEDIRQGRGIKSPLRTGDQDSTDDGDGLLEEHREFLKKFSVTVDAIPDHHPGEEIFNFLNSGKIFNQYTLDLRDSGFIGESAVEKLILKSGKTDQIFLTTQGFLTTAYHYVQCPVPVLKWLFRMMSVHTDCIVSVQILSTLMEITIRNDTFSDSPVWPWIPSLSDIAAVFFNMGVGFGSLFPLETLQPDFNEENLISETQKTLGGKESEDSPYSPVFSALPETNILNVVKFLGLCTSIHPEGYQDGELMLLILMLFKMSLEKELKQIPLVDFQSLLINLMKNIRDWNTKVHELCLGINELSSHPHNLLWLVQLVPNWTSRGRQLRQCLSLVMMSKLLDEKHEDIPNANNLQISVLHRYLVQMKPSDLLKKMVLKKRAEQPNETIDDSLHLELEKQAYYLTYILLHLVGEVSCSHSLSSGQRKHFVLLCGALEKHVKCDIREDARLFYRTKVKDLVARIHGKWQEIIQNCRPTQGQLHDFWVPDS
B3: Eif2a (protein, UniProt Q8BJW6 1-581)
chain: MAPSTPLLTVRGSEGLYMVNGPPHFTESTVLPRESGRNCKVYTFSKDGTLFAWSNGEKVNIINVANKGLLHSFDLPKAVCLEFSPNNTVLATWQPYTTSKDGTAGTPNLQLYDMKTGACLKSFIQKKMQNWCPSWSDDEIICARNVNNEVHFFENNNFNTIANKLHLQKVNDFNLSPGTQPYKVAVYVPGSKGAPSFVRLYQYPNFAGPQAALANKSFFKADKVTMLWNKKATAVLVIASTEVDKTGASYYGEQTLHYIATNGESAVVQLPKNGPIYDVVWNSSSTEFCAVYGFMPAKATVFNLKCDPVFDFGTGPRNAAFYSPHGHILVLAGFGNLRGQMEVWDVKNYKLISKPVASDSTYFAWCPDGEHILTATCAPRLRVNNGYKIWHYTGSLLHKYDVPSNGELWQVSWQPFLDGIFPAKTIKYQAVPSEVPSEEPKVATAYRPPALRNKPVTNSKLHEEEPPQNMKPHPGSDKPLSKTALKNQRKHEAKKAAKQEARSDAAPTPVPQSAPRNTVTQSASGDPEVDKKIKNLKKKLKAIEQLKEQAAAGKQLEKNQLEKIQKETALLQELEDLELGV

Biological target: TET1 (ten-eleven translocation 1), endogenous in oligodendrocyte lineage cells (mouse (endogenous in primary mouse OPCs and OLs)) (UniProt Q3URK3)
Test: affinity purification with mass spectrometry; IP of endogenous TET1 (rabbit anti-TET1, Catch and Release kit) from RIPA lysate of mouse mature OLs; normal IgG as control; SDS-PAGE, in-gel trypsin digestion, LC-MS/MS; done twice

| Binder | binding |
| --- | --- |
| B1 | binds |
| B2 | binds |
| B3 | binds |
